Test results published in the supplement of paper PMC10849652.
The other results are listed elsewhere or left out. Residues, ends and D or L forms follow the SMILES beside them. *: point of attachment. Cbz = O=C(OCc1ccccc1)*

Amino acid sequences for entries named in this document (tags omitted). A change or cut given only in a name is not applied to a line headed by its entry.
UniProt Q99942: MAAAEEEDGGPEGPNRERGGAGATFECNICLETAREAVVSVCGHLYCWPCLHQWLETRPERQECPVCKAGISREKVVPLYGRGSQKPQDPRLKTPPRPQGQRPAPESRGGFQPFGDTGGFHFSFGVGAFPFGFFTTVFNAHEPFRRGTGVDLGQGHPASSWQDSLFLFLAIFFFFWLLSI
UniProt Q96AT9: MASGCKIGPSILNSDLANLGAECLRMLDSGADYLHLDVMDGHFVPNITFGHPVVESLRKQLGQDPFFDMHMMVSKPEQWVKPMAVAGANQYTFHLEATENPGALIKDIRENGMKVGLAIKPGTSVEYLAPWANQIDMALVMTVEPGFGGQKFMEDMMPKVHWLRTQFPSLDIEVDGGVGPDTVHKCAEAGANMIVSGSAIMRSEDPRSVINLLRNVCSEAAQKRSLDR
UniProt P49247: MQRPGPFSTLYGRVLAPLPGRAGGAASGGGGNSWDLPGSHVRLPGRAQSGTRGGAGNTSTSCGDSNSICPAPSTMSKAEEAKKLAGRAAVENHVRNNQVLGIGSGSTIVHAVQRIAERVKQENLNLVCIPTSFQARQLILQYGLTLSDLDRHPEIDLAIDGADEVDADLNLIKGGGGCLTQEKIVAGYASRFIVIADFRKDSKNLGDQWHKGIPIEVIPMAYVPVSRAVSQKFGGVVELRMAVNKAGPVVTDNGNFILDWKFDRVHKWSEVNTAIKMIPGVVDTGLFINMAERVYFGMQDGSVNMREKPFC
UniProt O75818: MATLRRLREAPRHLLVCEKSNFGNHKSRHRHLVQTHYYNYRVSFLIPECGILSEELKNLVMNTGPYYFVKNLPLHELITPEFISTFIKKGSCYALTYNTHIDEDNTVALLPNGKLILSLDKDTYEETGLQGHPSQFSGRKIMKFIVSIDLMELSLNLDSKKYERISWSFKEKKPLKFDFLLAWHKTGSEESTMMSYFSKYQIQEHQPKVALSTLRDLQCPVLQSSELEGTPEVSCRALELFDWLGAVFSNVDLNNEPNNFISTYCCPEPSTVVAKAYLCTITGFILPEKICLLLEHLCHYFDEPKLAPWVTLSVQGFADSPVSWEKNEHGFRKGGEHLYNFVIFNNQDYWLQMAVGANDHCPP
UniProt P04844: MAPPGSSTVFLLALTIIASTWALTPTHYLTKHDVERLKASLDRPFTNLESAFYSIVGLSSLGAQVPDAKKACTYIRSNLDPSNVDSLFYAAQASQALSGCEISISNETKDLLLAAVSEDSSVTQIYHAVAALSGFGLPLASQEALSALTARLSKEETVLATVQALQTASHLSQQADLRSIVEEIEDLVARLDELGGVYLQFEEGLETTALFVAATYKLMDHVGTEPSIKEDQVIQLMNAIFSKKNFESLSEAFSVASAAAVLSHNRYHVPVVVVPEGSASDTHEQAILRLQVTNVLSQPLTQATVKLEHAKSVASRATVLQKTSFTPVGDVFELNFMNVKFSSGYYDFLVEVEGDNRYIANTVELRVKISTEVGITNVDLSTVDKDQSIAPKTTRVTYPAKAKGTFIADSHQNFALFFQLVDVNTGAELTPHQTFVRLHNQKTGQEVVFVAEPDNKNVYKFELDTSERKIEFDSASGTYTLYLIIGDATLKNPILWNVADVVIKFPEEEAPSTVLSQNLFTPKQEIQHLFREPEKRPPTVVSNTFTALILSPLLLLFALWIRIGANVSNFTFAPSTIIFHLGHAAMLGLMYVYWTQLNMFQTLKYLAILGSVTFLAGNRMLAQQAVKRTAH

Tests used:
Test in all cases: log2 fold change, soluble protein after heating vs DMSO (PISA); higher = thermal stabilisation; K562 cells, 10 uM, 30 min; active = over 0.2 and 3.5 SD of the protein, either way, in both replicates (recomputed)
erlotinib = compound: C#Cc1cccc(Nc2ncnc3cc(OCCOC)c(OCCOC)cc23)c1 [erlotinib]
How it was run: (§1)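 Quantification of soluble protein used TMTpro 16plex LC-MS/MS, with channel sums equalised. Samples were the supernatant after 21,000xg for 90 min of pooled aliquots from K562 cells (2×10^6 cells/mL) treated with 10 μM compound for 30 min, heated for 3 min over 48°C-58°C, and extracted in PBS with 0.5% NP-40 at 4°C. Values, from duplicates, describe thermal stability against control samples on a log2 fold-change scale.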

[1] = compound: C/C(=N\NC(=O)C1=CC(=CC=C1)S(=O)(=O)N2CCOCC2)/C3=C(C=CC(=C3)Cl)O
How it was run: as §1

[2] = compound: C1=CC(=C(C=C1Cl)C2=NC3=NC=CN=C3C(=N2)NC4=CC=NC=C4)F
How it was run: as §1

[3] = compound: C1=CC(=CC=C1C2=NC3=C(N2)C=C(C=C3)C(=O)N)OC4=CC=C(C=C4)Cl
How it was run: as §1

[4] = compound: C1=CC2=C(C=CC(=C2)/C=C\3/C(=O)NC(=NCC4=CC=CS4)S3)N=C1
How it was run: as §1

[5] = compound: C1=CC2=NC=CN=C2C=C1/C=C/3\C(=O)NC(=O)S3
How it was run: as §1

[6] = compound: C1=CC=C(C=C1)C2=NC(=C(N2)C3=CC=NC=C3)C4=CC(=C(C=C4)Cl)O
How it was run: as §1

[7] = compound: C1=CC=C2C(=C1)C3=NNC4=CC=CC(=C43)C2=O
How it was run: as §1

[8] = compound: C1CCN(C1)C(=O)NC2=CC=CC(=C2)NC3=NC=C(C(=N3)NCCC4=CN=CN4)Br
How it was run: as §1

[9] = compound: C1CN(CCC1(CC2=CC=C(C=C2)Cl)N)C3=NC=NC4=C3C=CN4
How it was run: as §1

IRAK-1-4 Inhibitor I = compound: C1COCCN1CCN2C3=CC=CC=C3N=C2NC(=O)C4=CC(=CC=C4)[N+](=O)[O-] [IRAK-1-4 Inhibitor I]
How it was run: as §1

ibrutinib = compound: C=CC(=O)N1CCC[C@@H](n2nc(-c3ccc(Oc4ccccc4)cc3)c3c(N)ncnc32)C1 [ibrutinib]
How it was run: as §1

[10] = compound: CC(=O)c1cnc2ccc(-c3cc(Cl)c(O)c(Cl)c3)nc2c1N[C@H]1CC[C@H](CN(C)C)CC1
How it was run: as §1

ralimetinib = compound: CC(C)(C)Cn1c(N)nc2ccc(-c3[nH]c(C(C)(C)C)nc3-c3ccc(F)cc3)nc21 [ralimetinib]
How it was run: as §1

[11] = compound: CC(C)(O)CC(=O)NCCn1ccc2ncnc(Nc3ccc(Oc4cccc(C(F)(F)F)c4)c(Cl)c3)c21
How it was run: as §1

[12] = compound: CC(C)C1=C2N=C(C=C(N2N=C1)NCC3=CC=CC=C3)NCCCCCCN
How it was run: as §1

[13] = compound: CC(C)C[C@@H](C=O)NC(=O)[C@H](CC(C)C)NC(=O)[C@H](CC(C)C)NC(=O)OCc1ccccc1
How it was run: as §1

pinometostat = compound: CC(C)N(C[C@H]1O[C@@H](n2cnc3c(N)ncnc32)[C@H](O)[C@@H]1O)[C@H]1C[C@@H](CCc2nc3cc(C(C)(C)C)ccc3[nH]2)C1 [pinometostat]
How it was run: as §1

[14] = compound: CC1=C(C(CC(=O)N1)C2=CC=C(C=C2)C(F)(F)F)C(=O)NC3=C(C=C4C(=C3)C=NN4)F
How it was run: as §1

[15] = compound: CC1=C(C2=C(C=C1)C(=O)C3=CC=CC=C3N2CCCN)C
How it was run: as §1

Measured: log2 fold change

RPL36 (UniProt Q9Y3U8)
inactive: erlotinib -0.379 | [1] -0.335 | [2] -1.03 | [3] 0.092 | [4] -0.169 | [5] -0.039 | [6] -0.105 | [7] 0.022 | [8] -0.008 | [9] -0.319 | IRAK-1-4 Inhibitor I -0.338 | ibrutinib 0.033 | [10] 0.28 | ralimetinib 0.269 | [11] 0 | [12] 0.04 | [13] 0.149 | pinometostat 0.418 | [14] 0.156 | [15] -0.916

RPLP0 (UniProt P05388)
inactive: erlotinib -0.363 | [1] -0.335 | [2] -1.03 | [3] 0.046 | [4] -0.215 | [5] -0.006 | [6] -0.106 | [7] -0.004 | [8] -0.002 | [9] -0.33 | IRAK-1-4 Inhibitor I -0.212 | ibrutinib 0.089 | [10] 0.204 | ralimetinib 0.2 | [11] 0.053 | [12] 0.022 | [13] 0.156 | pinometostat 0.523 | [14] 0.082 | [15] -0.886

RPL32 (UniProt P62910)
inactive: erlotinib -0.445 | [1] -0.235 | [2] -0.687 | [3] 0.091 | [4] -0.188 | [5] -0.067 | [6] 0.104 | [7] 0.049 | [8] -0.016 | [9] -0.338 | IRAK-1-4 Inhibitor I -0.294 | ibrutinib 0.105 | [10] 0.219 | ralimetinib 0.201 | [11] 0 | [12] -0.011 | [13] 0.165 | pinometostat 0.41 | [14] 0.129 | [15] -0.728

RNF5 (UniProt Q99942)
inactive: erlotinib 0.107 | [1] -0.001 | [2] -0.016 | [3] 0.039 | [4] 0.066 | [5] 0.058 | [6] 0.108 | [7] -0.034 | [8] -0.016 | [9] -0.007 | IRAK-1-4 Inhibitor I 0.054 | ibrutinib -0.018 | [10] 0 | ralimetinib 0.27 | [11] -0.032 | [12] -0.221 | [13] -0.078 | pinometostat -0.05 | [14] 0.012 | [15] 0.034

RPE (UniProt Q96AT9)
inactive: erlotinib 0.013 | [1] 0.106 | [2] 0.115 | [3] 0.083 | [4] 0.036 | [5] 0.04 | [6] 0.01 | [7] 0.037 | [8] 0.011 | [9] 0.05 | IRAK-1-4 Inhibitor I 0.109 | ibrutinib 0.032 | [10] -0.047 | ralimetinib -0.088 | [11] -0.13 | [12] 0 | [13] -0.055 | pinometostat -0.032 | [14] -0.056 | [15] 0.149

RPL9 (UniProt P32969)
inactive: erlotinib -0.416 | [1] -0.313 | [2] -0.78 | [3] 0.059 | [4] -0.162 | [5] -0.033 | [6] -0.06 | [7] 0.041 | [8] 0.054 | [9] -0.381 | IRAK-1-4 Inhibitor I -0.32 | ibrutinib 0.104 | [10] 0.241 | ralimetinib 0.268 | [11] 0 | [12] -0.064 | [13] 0.06 | pinometostat 0.462 | [14] 0.116 | [15] -0.686

RPL21 (UniProt P46778)
inactive: erlotinib -0.413 | [1] -0.38 | [2] -1.19 | [3] 0.073 | [4] -0.196 | [5] -0.066 | [6] -0.105 | [7] -0.012 | [8] 0.101 | [9] -0.331 | IRAK-1-4 Inhibitor I -0.295 | ibrutinib 0.111 | [10] 0.244 | ralimetinib 0.223 | [11] 0.16 | [12] -0.019 | [13] 0.185 | pinometostat 0.614 | [14] 0.093 | [15] -0.829

RPS28 (UniProt P62857)
inactive: erlotinib -0.017 | [1] -0.29 | [2] -0.071 | [3] -0.004 | [4] -0.317 | [5] 0.004 | [6] -0.072 | [7] 0.135 | [8] 0.167 | [9] 0.06 | IRAK-1-4 Inhibitor I -0.082 | ibrutinib -0.058 | [10] 0.061 | ralimetinib 0.045 | [11] 0.091 | [12] 0.116 | [13] 0.169 | pinometostat 0.024 | [14] 0.029 | [15] -0.138

RPS6 (UniProt P62753)
inactive: erlotinib -0.259 | [1] -0.123 | [2] -0.564 | [3] 0.042 | [4] -0.301 | [5] -0.049 | [6] 0.031 | [7] 0.052 | [8] -0.061 | [9] -0.158 | IRAK-1-4 Inhibitor I -0.161 | ibrutinib 0.018 | [10] 0.213 | ralimetinib 0.284 | [11] 0.039 | [12] -0.064 | [13] 0.072 | pinometostat 0.42 | [14] 0.08 | [15] -0.647

RPIA (UniProt P49247)
inactive: erlotinib 0.03 | [1] 0.001 | [2] 0.032 | [3] 0.009 | [4] 0.004 | [5] 0.018 | [6] -0.023 | [7] -0.008 | [8] -0.01 | [9] 0.031 | IRAK-1-4 Inhibitor I 0.028 | ibrutinib -0.004 | [10] 0.006 | ralimetinib -0.038 | [11] -0.038 | [12] 0.041 | [13] -0.039 | pinometostat 0 | [14] 0.008 | [15] 0.025

RPL35A (UniProt P18077)
inactive: erlotinib -0.466 | [1] -0.465 | [2] -1.14 | [3] 0.06 | [4] -0.27 | [5] -0.065 | [6] -0.117 | [7] -0.008 | [8] 0.121 | [9] -0.291 | IRAK-1-4 Inhibitor I -0.205 | ibrutinib 0.029 | [10] 0.228 | ralimetinib 0.193 | [11] 0.113 | [12] -0.016 | [13] 0.142 | pinometostat 0.601 | [14] 0.098 | [15] -0.791

RPL29 (UniProt P47914)
inactive: erlotinib -0.409 | [1] -0.308 | [2] -1.25 | [3] 0.08 | [4] -0.251 | [5] -0.061 | [6] 0.056 | [7] 0.025 | [8] -0.008 | [9] -0.205 | IRAK-1-4 Inhibitor I -0.208 | ibrutinib 0.118 | [10] 0.223 | ralimetinib 0.386 | [11] 0.393 | [12] 0.106 | [13] 0.216 | pinometostat 0.398 | [14] 0.061 | [15] -0.763

RPP40 (UniProt O75818)
inactive: erlotinib -0.104 | [1] -0.004 | [2] -0.039 | [3] 0.007 | [4] 0.004 | [5] 0 | [6] 0.004 | [7] 0.021 | [8] -0.009 | [9] -0.001 | IRAK-1-4 Inhibitor I -0.001 | ibrutinib 0.02 | [10] -0.037 | ralimetinib -0.053 | [11] 0.009 | [12] 0.019 | [13] -0.024 | pinometostat 0.025 | [14] 0.013 | [15] -0.107

RPN2 (UniProt P04844)
inactive: erlotinib -0.019 | [1] -0.002 | [2] 0.009 | [3] -0.008 | [4] -0.015 | [5] 0.026 | [6] 0.065 | [7] 0.006 | [8] -0.019 | [9] -0.011 | IRAK-1-4 Inhibitor I -0.04 | ibrutinib -0.022 | [10] 0.027 | ralimetinib 0.023 | [11] 0.007 | [12] -0.09 | [13] -0.043 | pinometostat -0.013 | [14] 0.013 | [15] 0.019

RPL6 (UniProt Q02878)
inactive: erlotinib -0.468 | [1] -0.289 | [2] -0.848 | [3] 0.093 | [4] -0.126 | [5] -0.035 | [6] -0.141 | [7] 0.079 | [8] 0.033 | [9] -0.371 | IRAK-1-4 Inhibitor I -0.241 | ibrutinib 0.062 | [10] 0.285 | ralimetinib 0.248 | [11] 0.266 | [12] 0.028 | [13] 0.185 | pinometostat 0.59 | [14] 0.072 | [15] -0.908

2 entries drawn at random from the list so far:
RPN2 (UniProt P04844)
inactive: erlotinib -0.019 | [1] -0.002 | [2] 0.009 | [3] -0.008 | [4] -0.015 | [5] 0.026 | [6] 0.065 | [7] 0.006 | [8] -0.019 | [9] -0.011 | IRAK-1-4 Inhibitor I -0.04 | ibrutinib -0.022 | [10] 0.027 | ralimetinib 0.023 | [11] 0.007 | [12] -0.09 | [13] -0.043 | pinometostat -0.013 | [14] 0.013 | [15] 0.019

RPL35A (UniProt P18077)
inactive: erlotinib -0.466 | [1] -0.465 | [2] -1.14 | [3] 0.06 | [4] -0.27 | [5] -0.065 | [6] -0.117 | [7] -0.008 | [8] 0.121 | [9] -0.291 | IRAK-1-4 Inhibitor I -0.205 | ibrutinib 0.029 | [10] 0.228 | ralimetinib 0.193 | [11] 0.113 | [12] -0.016 | [13] 0.142 | pinometostat 0.601 | [14] 0.098 | [15] -0.791

Later entries:

RPL12 (UniProt P30050)
inactive: erlotinib -0.264 | [1] -0.386 | [2] -0.998 | [3] 0.013 | [4] -0.219 | [5] -0.022 | [6] -0.125 | [7] -0.02 | [8] 0.066 | [9] -0.207 | IRAK-1-4 Inhibitor I -0.208 | ibrutinib 0.049 | [10] 0.183 | ralimetinib 0.238 | [11] 0.065 | [12] 0.07 | [13] 0.059 | pinometostat 0.617 | [14] 0.092 | [15] -0.619
